{"source": "the supplement of paper PMC7752906", "note": "Where a name gives a salt, the structure may show the parent alone. Some of the results follow. Single values are uncertain here, since repeats match poorly.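 About 40 Schistosoma mansoni schistosomula per well were imaged over time in bright field and compared with 0.1% DMSO wells. A drug counts as a hit if its Mahalanobis distance reaches 2.47 or more, three standard deviations above the DMSO control mean. Degeneracy is the fraction of worms scored opaque.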 Square brackets hold non-standard residues; d marks the D form. Peptide text beside a SMILES is read from it. pGlu = O=C1CC[C@@H](C(=O)O)N1; Thz = O=C(O)[C@@H]1CSCN1"}
{"tested_on": "Schistosoma mansoni schistosomula", "assay": "degeneracy (percent of somules classified as degenerate/opaque); higher = more parasite degeneration/death; extreme values may be limits of the assay", "conditions": "10 µM; 72 h", "units": {"degeneracy": "%"}}
{"smiles": "Nc1ccc(S(=O)(=O)Nc2nccs2)cc1", "note": "[Sulfathiazole]", "degeneracy": 28.6}
{"smiles": "Cc1ccc(-c2cc(C(F)(F)F)nn2-c2ccc(S(N)(=O)=O)cc2)cc1", "note": "[Celecoxib]", "degeneracy": 28}
{"smiles": "COC(=O)[C@H](Cc1ccccc1)NC(=O)[C@@H](N)CC(=O)O", "note": "[Aspartame] (H-Asp-Phe-OMe)", "degeneracy": 8.33}
{"smiles": "COc1cc(CNC(=O)CCCC/C=C/C(C)C)ccc1O", "note": "[Capsaicin]", "degeneracy": 6.52}
{"smiles": "O=C(NCCCN1CCOCC1)c1ccc(Cl)cc1", "note": "[Eprobemide]", "degeneracy": 3.7}
{"smiles": "C[C@]12CC[C@@H]3c4ccc(O)cc4C[C@@H](CCCCCCCCC[S+]([O-])CCCC(F)(F)C(F)(F)F)[C@H]3[C@@H]1CC[C@@H]2O", "note": "(stereo partly specified) [Fulvestrant]", "degeneracy": 11.1}
{"smiles": "CO/N=C(\\C(=O)N[C@@H]1C(=O)N2C(C(=O)O)=C(COC(C)=O)CS[C@H]12)c1csc(N)n1", "note": "[Cefotaxime Sodium]", "degeneracy": 3.45}
{"smiles": "CO/N=C(\\C(=O)N[C@@H]1C(=O)N2C(C(=O)O)=C(COC(C)=O)CS[C@H]12)c1csc(N)n1", "note": "[Cefotaxime]", "degeneracy": 8.89}
{"smiles": "CC(=O)Nc1c(I)cc(I)c(C(=O)O)c1I", "note": "[Acetriazoic Acid]", "degeneracy": 4.88}
{"smiles": "Cc1cc2cc3c(C)cc(=O)oc3c(C)c2o1", "note": "[Trioxsalen]", "degeneracy": 11.8}
{"smiles": "CC(=O)Nc1nnc(S(N)(=O)=O)s1", "note": "[Acetazolamide]", "degeneracy": 0}
{"smiles": "CC(C)Oc1ccc2c(=O)c(-c3ccccc3)coc2c1", "note": "[Ipriflavone]", "degeneracy": 11.8}
{"smiles": "Clc1ccc2nsnc2c1NC1=NCCN1", "note": "[Tizanidine Hydrochloride]", "degeneracy": 13.3}
{"smiles": "O=C(CCCl)NCCc1ccccc1", "note": "[Fenaclon]", "degeneracy": 5.77}
{"smiles": "Nc1ncnc2c1ncn2[C@@H]1O[C@H](CO)[C@@H](O)[C@@H]1O", "note": "[Vidarabine]", "degeneracy": 30}
{"smiles": "C[C@H]1C[C@H]2[C@@H]3CCC4=CC(=O)C=C[C@]4(C)[C@@]3(F)[C@@H](O)C[C@]2(C)[C@@]1(O)C(=O)COP(=O)(O)O", "note": "[Betamethasone Sodium Phosphate]", "degeneracy": 2.44}
{"smiles": "CC[C@H](C)[C@H](N)C(=O)O", "note": "[Isoleucine (l)]", "degeneracy": 8.11}
{"smiles": "CCOc1nc2cccc(C(=O)O)c2n1Cc1ccc(-c2ccccc2-c2nnn[nH]2)cc1", "note": "[Candesartan]", "degeneracy": 0}
{"smiles": "O=C1CC[C@@H](C(=O)N2CSC[C@H]2C(=O)O)N1", "note": "[Pidotimod] ([pGlu]-[Thz]-OH)", "degeneracy": 6.67}
{"smiles": "Oc1c(Cl)cc(Cl)c2cccnc12", "note": "[chloroxine]", "degeneracy": 100}
{"smiles": "c1ccc(-c2ccc(C(c3ccccc3)n3ccnc3)cc2)cc1", "note": "(stereo unspecified) [Bifonazole]", "degeneracy": 22.5}
{"smiles": "CC(=O)N(CC(O)CO)c1c(I)c(C(=O)NCCO)c(I)c(C(=O)NCC(O)CO)c1I", "note": "(stereo unspecified) [Ioxilan]", "degeneracy": 2.94}
{"smiles": "COC(=O)Nc1nc2cc(Sc3ccccc3)ccc2[nH]1", "note": "[Fenbendazole]", "degeneracy": 100}
{"smiles": "CC(=O)N(CC(O)CO)c1c(I)c(C(=O)NCC(O)CO)c(I)c(C(=O)NCC(O)CO)c1I", "note": "(stereo unspecified) [Iohexol]", "degeneracy": 3.03}
{"smiles": "Clc1cccc(Cl)c1NC1=NCCN1", "note": "[Clonidine]", "degeneracy": 4.55}
{"smiles": "CO[C@H]1/C=C/O[C@@]2(C)Oc3c(C)c(O)c4c(O)c(c5c(nc6cc(C)ccn65)c4c3C2=O)NC(=O)/C(C)=C\\C=C\\[C@H](C)[C@H](O)[C@@H](C)[C@@H](O)[C@@H](C)[C@H](OC(C)=O)[C@@H]1C", "note": "[Rifaximin]", "degeneracy": 3.7}
{"smiles": "CCCNC(=O)NS(=O)(=O)c1ccc(Cl)cc1", "note": "[Chlorpropamide]", "degeneracy": 5.13}
{"smiles": "CC(=O)O[C@]1(C(C)=O)CC[C@H]2[C@@H]3C=C(Cl)C4=CC(=O)CC[C@]4(C)[C@H]3CC[C@@]21C", "note": "[Chlormadinone Acetate]", "degeneracy": 5.56}
{"smiles": "CN(C)C(=N)NC(=N)N", "note": "[metformin]", "degeneracy": 3.03}
{"smiles": "CNCCc1ccccn1", "note": "[Betahistine]", "degeneracy": 10.5}
{"smiles": "CC=CC(=O)N(CC)c1ccccc1C", "note": "[Crotamiton]", "degeneracy": 3.03}
{"smiles": "CCCCCCCCCCCCCCCC(=O)OC[C@H](O)[C@H]1OC(=O)C(O)=C1O", "note": "[Ascorbyl Palmitate]", "degeneracy": 46.7}
{"smiles": "O=C(c1ccc(F)cc1)C1CCN(CCn2c(=O)[nH]c3ccccc3c2=O)CC1", "note": "[Ketanserin Tartrate]", "degeneracy": 4.17}
{"smiles": "C[C@H](C(=O)O)c1cccc(C(=O)c2ccccc2)c1", "note": "[Dexketoprofen]", "degeneracy": 2.63}
{"smiles": "CCN(CC)C(=O)c1ccc(O)c(OC)c1", "note": "[Ethamivan]", "degeneracy": 3.45}
{"smiles": "CC(=O)[C@@]1(O)CC[C@H]2[C@@H]3CCC4=CC(=O)CC[C@]4(C)[C@H]3CC[C@@]21C", "note": "[Hydroxyprogesterone]", "degeneracy": 16}
{"smiles": "CN(C)CCOC(c1ccccc1)c1ccccc1.Cn1c(=O)c2[nH]c(Cl)nc2n(C)c1=O", "note": "[Dimenhydrinate]", "degeneracy": 11.1}
{"smiles": "O=C1NCC2(CCN(CCc3ccccc3)CC2)O1", "note": "[Fenspiride Hydrochloride]", "degeneracy": 10}
{"smiles": "Cc1cc2nc3c(=O)[nH]c(=O)nc-3n(C[C@H](O)[C@H](O)[C@H](O)CO)c2cc1C", "note": "[riboflavin]", "degeneracy": 0}
{"smiles": "CCCNC(C)(C)COC(=O)c1ccccc1", "note": "[Meprylcaine Hydrochloride]", "degeneracy": 13.6}
{"smiles": "CCC1(C)CC(=O)NC1=O", "note": "(stereo unspecified) [Ethosuximide]", "degeneracy": 5.56}
{"smiles": "CC(=O)Nc1ccc(OC(C)=O)cc1", "note": "[Diacetamate]", "degeneracy": 6.06}
{"smiles": "CCc1nn(CCCN2CCN(c3cccc(Cl)c3)CC2)c(=O)n1CCOc1ccccc1", "note": "[Nefazodone]", "degeneracy": 25.7}
{"smiles": "O=S(=O)(c1cccc2cnccc12)N1CCCNCC1", "note": "[Fasudil Hydrochloride]", "degeneracy": 3.45}
{"smiles": "CCC(C)(C)C(=O)O[C@H]1C[C@@H](C)C=C2C=C[C@H](C)[C@H](CC[C@@H]3C[C@@H](O)CC(=O)O3)[C@H]21", "note": "[Simvastatin]", "degeneracy": 100}
{"smiles": "C[C@@H]1CN(c2c(F)c(F)c3c(=O)c(C(=O)O)cn(C4CC4)c3c2F)C[C@H](C)N1", "note": "[Orbifloxacin]", "degeneracy": 9.09}
{"smiles": "O=[N+]([O-])c1ccc(O)c2ncccc12", "note": "[Nitroxoline]", "degeneracy": 100}
{"smiles": "CC(O)(CC(=O)O)CC(=O)O", "note": "[Meglutol]", "degeneracy": 9.68}
{"smiles": "NNC(=O)c1ccncc1.Nc1ccc(C(=O)O)c(O)c1", "note": "[Pasiniazid]", "degeneracy": 0}
{"smiles": "O=C(O)c1ccccc1Nc1cccc(C(F)(F)F)c1", "note": "[Flufenamic Acid]", "degeneracy": 100}
{"smiles": "CC(=O)Nc1ccc(S(=O)(=O)c2ccc(NC(C)=O)cc2)cc1", "note": "[Acedapsone]", "degeneracy": 7.69}
{"smiles": "O=C1O[C@H]([C@@H](O)CO)C(O)=C1O", "note": "[Ascorbic Acid]", "degeneracy": 0}
{"smiles": "Clc1ccc(C(c2ccccc2Cl)C(Cl)Cl)cc1", "note": "(stereo unspecified) [Mitotane]", "degeneracy": 100}
{"smiles": "CCCCN1CCCC[C@H]1C(=O)Nc1c(C)cccc1C", "note": "[Levobupivacaine]", "degeneracy": 7.89}
{"smiles": "Nc1ccc(C(=O)O)c(O)c1", "note": "[Aminosalicylic Acid]", "degeneracy": 4.17}
{"smiles": "Nc1nc(/C(=C/CC(=O)O)C(=O)N[C@@H]2C(=O)N3C(C(=O)O)=CCS[C@H]23)cs1", "note": "[Ceftibuten]", "degeneracy": 9.09}
{"smiles": "CN(C)CCOC(=O)C(c1ccccc1)C1(O)CCCC1", "note": "(stereo unspecified) [Cyclopentolate Hydrochloride]", "degeneracy": 12}
{"smiles": "CCN(CC)CCNC(=O)c1cc(Br)c(N)cc1OC", "note": "[Bromopride]", "degeneracy": 3.12}
{"smiles": "OC(CCN1CCCCC1)(c1ccccc1)c1ccccc1", "note": "[Pridinol]", "degeneracy": 26.1}
{"smiles": "CCCCC(=O)N(Cc1ccc(-c2ccccc2-c2nnn[nH]2)cc1)[C@H](C(=O)O)C(C)C", "note": "[Valsartan]", "degeneracy": 5.88}
{"smiles": "O=C(O)CCC(=O)c1ccc(-c2ccccc2)cc1", "note": "[Fenbufen]", "degeneracy": 5.13}
{"smiles": "N[C@@H](Cc1ccc(O)c(O)c1)C(=O)O", "note": "[Levodopa]", "degeneracy": 4.88}
{"smiles": "CN1CCN2c3ccccc3Cc3ccccc3C2C1", "note": "(stereo unspecified) [Mianserin]", "degeneracy": 100}
{"smiles": "C[C@H](CCC(=O)O)[C@H]1CC[C@H]2[C@@H]3C(=O)C[C@@H]4CC(=O)CC[C@]4(C)[C@H]3CC(=O)[C@]12C", "note": "[Dehydrocholic Acid]", "degeneracy": 7.89}
{"smiles": "O=C1c2c(O)ccc(O)c2C(=O)c2c(NCCNCCO)ccc(NCCNCCO)c21", "note": "[Mitoxantrone]", "degeneracy": 75}
{"smiles": "O=C(NC(Cc1cc(=O)[nH]c2ccccc12)C(=O)O)c1ccc(Cl)cc1", "note": "(stereo unspecified) [Rebamipide]", "degeneracy": 2.63}
{"smiles": "OC[C@H]1O[C@@H](O[C@H]2[C@H](O)[C@@H](O)C(O)O[C@@H]2CO)[C@H](O)[C@@H](O)[C@H]1O", "note": "(stereo partly specified) [Lactose Monohydrate]", "degeneracy": 12.5}
{"smiles": "CC(C)(C)NC[C@H](O)COc1cccc2c1CCCC2=O", "note": "[Levobunolol Hydrochloride]", "degeneracy": 5.71}
{"smiles": "CC(C)(C)NC[C@H](O)COc1cccc2c1CCCC2=O", "note": "[Levobunolol]", "degeneracy": 6.67}
{"smiles": "C[N+](C)(C)CCOC(N)=O", "note": "[Carbachol]", "degeneracy": 0}
{"smiles": "CC1(C)O[C@@H]2C[C@H]3[C@@H]4C[C@H](F)C5=CC(=O)CC[C@]5(C)[C@H]4[C@@H](O)C[C@]3(C)[C@]2(C(=O)CO)O1", "note": "[Flurandrenolide]", "degeneracy": 2.33}
{"smiles": "CCN1CCCC1CNC(=O)c1cc(S(N)(=O)=O)ccc1OC", "note": "(stereo unspecified) [Sulpiride]", "degeneracy": 3.7}
{"smiles": "O=C(O)c1cccnc1", "note": "[Niacin]", "degeneracy": 11.9}
{"smiles": "Cc1cccc(N(C)C(=S)Oc2ccc3ccccc3c2)c1", "note": "[Tolnaftate]", "degeneracy": 24.1}
{"smiles": "O=c1[nH]c(=O)n([C@H]2C[C@H](O)[C@@H](CO)O2)cc1I", "note": "[Idoxuridine]", "degeneracy": 0}
{"smiles": "C#C[C@]1(O)CC[C@H]2[C@@H]3CCC4=Cc5oncc5C[C@]4(C)[C@H]3CC[C@@]21C", "note": "[Danazol]", "degeneracy": 58.8}
{"smiles": "CCOc1ccc(Cc2nccc3cc(OCC)c(OCC)cc23)cc1OCC", "note": "[Ethaverine Hydrochloride]", "degeneracy": 21.6}
{"smiles": "O=C(Nc1ccc([N+](=O)[O-])cc1Cl)c1cc(Cl)ccc1O", "note": "[niclosamide]", "degeneracy": 100}
{"smiles": "CC/C=C\\C/C=C\\C/C=C\\C/C=C\\C/C=C\\C/C=C\\CCC(=O)O", "note": "[Doconexent]", "degeneracy": 16.2}
{"smiles": "CCC[C@@H]1C[C@@H](C(=O)N[C@@H]([C@H]2O[C@H](SC)[C@H](O)[C@@H](O)[C@H]2O)[C@@H](C)O)N(C)C1", "note": "[Lincomycin]", "degeneracy": 9.09}
{"smiles": "O=c1cc[nH]c(=O)[nH]1", "note": "[Uracil]", "degeneracy": 9.68}
